This is an account of results in PMC7567853.

Amino acid sequences for entries named in this document (tags omitted).
UniProt P70444: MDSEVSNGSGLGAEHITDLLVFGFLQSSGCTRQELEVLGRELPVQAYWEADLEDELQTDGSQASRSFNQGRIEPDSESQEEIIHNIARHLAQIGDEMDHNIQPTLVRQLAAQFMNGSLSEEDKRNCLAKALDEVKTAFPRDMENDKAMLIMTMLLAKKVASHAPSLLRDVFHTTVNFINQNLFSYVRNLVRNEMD

Results are given in words; binding and its absence hold for the method and conditions named. Binding seen in cells or lysates may run through a third protein. These calls come from enrichment with a bait or labelling near it, and not all partners need be listed.

This test concerns the target mBidWT–BirA* (mouse) (UniProt P70444). Put plainly: proximity labelling; BioID in HeLa cells stably expressing BirA* baits; 50 µM biotin for 16 h with nocodazole (mitotic enrichment) or DMSO (unsynchronised); lysis in RIPA, streptavidin-affinity purification, label-free LC–MS/MS (Progenesis QI); enrichment against the paired venus-BirA* control; three independent experiments.

B1: Septin 9 (protein, UniProt Q9UHD8 1-586)
chain: MKKSYSGGTRTSSGRLRRLGDSSGPALKRSFEVEEVETPNSTPPRRVQTPLLRATVASSTQKFQDLGVKNSEPSARHVDSLSQRSPKASLRRVELSGPKAAEPVSRRTELSIDISSKQVENAGAIGPSRFGLKRAEVLGHKTPEPAPRRTEITIVKPQESAHRRMEPPASKVPEVPTAPATDAAPKRVEIQMPKPAEAPTAPSPAQTLENSEPAPVSQLQSRLEPKPQPPVAEATPRSQEATEAAPSCVGDMADTPRDAGLKQAPASRNEKAPVDFGYVGIDSILEQMRRKAMKQGFEFNIMVVGQSGLGKSTLINTLFKSKISRKSVQPTSEERIPKTIEIKSITHDIEEKGVRMKLTVIDTPGFGDHINNENCWQPIMKFINDQYEKYLQEEVNINRKKRIPDTRVHCCLYFIPATGHSLRPLDIEFMKRLSKVVNIVPVIAKADTLTLEERVHFKQRITADLLSNGIDVYPQKEFDEDSEDRLVNEKFREMIPFAVVGSDHEYQVNGKRILGRKTKWGTIEVENTTHCEFAYLRDLLIRTHMQNIKDITSSIHFEAYRVKRLNEGSSAMANGMEEKEPEAPEM
With B1, the binding result is “binds”.
